The list shows a part of the results. Further columns of the screen follow, without active or inactive calls. The list favours compounds with an active or inconclusive main result.

The experiment can be described thus: dynein cargo transport inhibitors, GR-EGFP translocation, confirmation, imaging, high-content imaging, GR-EGFP cells (AID 463116). The note with it: 3617.4 GR-EGFP nuclear translocation imaging, dexamethasone-induced; measured here: cell count per field; at 20 µM.
With `N#CCCn1cc(C=C(C#N)C#N)c(-c2ccc(-c3ccccc3)cc2)n1`, the z-score is -0.763. Compound `O=C(c1ccccc1)c1ccccc1N1C(=O)C=CC1=O` showed a z-score of -0.854. Take `CCCCCCN1C=CC(=C/C=C(\C#N)C(=O)OCC)C=C1`: the z-score came out at 0.202. The compound `COc1ccc(C(c2c(C)[nH]n(C(N)=S)c2=O)C(C#N)C#N)cc1` (configuration not stated) gave a z-score of 0.566. `COC(=O)c1cc(=O)n(Cc2ccc3c(c2)OCO3)c(=Nc2ccc(F)c(Cl)c2)s1`: the z-score was found to be 0.848.

For `COC(=O)c1cc([N+](=O)[O-])c(-n2cncn2)c([N+](=O)[O-])c1`, the z-score is 0.933.

`CCN(Cc1ccc(OC)c(F)c1)C(=O)CCl` yielded a z-score of 0.0453. Regarding `O=C(Nc1ccc(F)cc1)c1nn(-c2ccccc2)c(=O)cc1Cl`, the z-score is -0.314. The compound `CCOc1ccccc1N1C(=O)CC(Sc2n[nH]c(-c3ccccc3)n2)C1=O` (configuration not stated) gave a z-score of -0.105. For `COc1ccc(CN(CCC(c2ccccc2)c2ccc(OC(C)C)cc2)C(=O)CCl)cc1OC` (configuration not stated), the z-score is 0.229. Next, `CCC(=O)Nc1ccc(C(=O)Cn2ncc(Cl)c(Cl)c2=O)cc1`: 0.0579. In turn, `CC(=O)NCc1ccc(C(=O)CCl)cc1` showed a z-score of -0.255. With `COc1ccc(NC(=O)CCc2nc3ccccc3s2)c(OC)c1`, the z-score was determined as 0.863. Take `CS(=O)(=O)c1ccc(S(=O)CC(=O)Oc2ccc(Cl)cc2)c([N+](=O)[O-])c1` (configuration not stated): the z-score was determined as 0.195. Next, `CCOc1cc(C=C(C(=O)OC)C(=O)OC)ccc1OCc1ccc([N+](=O)[O-])cc1`: 0.231; `Nc1cccc2c1C(=O)N(C(=O)/C=C/c1cccc(Br)c1)C2=O`: 0.151. Next, `O=C(/C=C/c1cccnc1)/C=C/c1cccnc1`: 0.412. Next, `Cc1[nH]c2ccccc2c1/C=N/Nc1ccc([N+](=O)[O-])cc1S(=O)(=O)Nc1ccc(Cl)cc1`: -0.556; `CCOc1ccc(/C=C/[N+](=O)[O-])c2ccccc12`: -1.34; `O=C1c2cc([N+](=O)[O-])cc3cc([N+](=O)[O-])cc(c23)C(=O)N1c1ccccn1`: 0.401. As to `CC(C)N1C/C(=C/c2cccnc2)C(=O)/C(=C/c2cccnc2)C1`, the z-score came out at 0.513. On to `CCCN(CCC)C(=O)c1cc([N+](=O)[O-])cc2c1-c1ccc([N+](=O)[O-])cc1C2=C(C#N)C#N`, for which the z-score was -0.0455. On to `CCOC(=O)N1C/C(=C\c2ccccc2)C(=O)/C(=C/c2ccccc2)C1`, for which the z-score came to 0.554.

In the case of `C=CS(=O)(=O)c1ccc(Oc2ccc(S(=O)(=O)C=C)cc2)cc1`, the z-score was 0.528. Compound `CCCN1C(=O)/C(=C\c2ccncc2)SC1=Nc1ccccc1` returned a z-score of 0.451. Next, `CC(=O)/C(=C/c1ccccc1)C(=O)Nc1ccccc1C`: 0.0108; `CCOc1cc(/C=C2\C(=O)N(Cc3ccco3)C(C)=C2C(=O)OC)ccc1O`: 0.229.

In turn, `Cc1ccc(N2C(=N)/C(=C3/Nc4ccccc4S3)C(c3ccccc3)C2=O)cc1` (configuration not stated) came in with a z-score of -0.307.

Regarding `CCOC(=O)/C=C/C(=O)Nc1ccccc1-c1ccccc1NC(=O)/C=C/C(=O)OCC`, the z-score was 0.592.

In turn, `CC(C)(C)C1CCc2sc(-c3nnc(CCl)o3)cc2C1` (configuration not stated) showed a z-score of 0.252.

`CC(=O)n1cc(N(C(=O)CCl)c2ccccc2)c2ccccc21` showed a z-score of -0.358. `COc1cccc(/C(O)=C/c2nc3ccc(C(=O)NCCc4ccc(Cl)cc4)cc3[nH]c2=O)c1`: the z-score is 0.745. In the case of `CS(=O)(=O)c1ccc(C(=O)OCc2nnc(-c3ccc(Cl)cc3)o2)cc1[N+](=O)[O-]`, the z-score is -0.274. As for `N#CC(C#N)=C1C=C2C=C(N3CCOCC3)CCC2CC1` (configuration not stated), the z-score is 0.0481. Regarding `CCOC(=O)C1CCCN(C(=O)Cn2sc3nc(C)cc(C)c3c2=O)C1` (configuration not stated), the z-score is 0.207.

In turn, `CCSc1nc2ccccc2n1C(=O)/C=C\c1ccc(OC)c(OC)c1` yielded a z-score of 0.411. As to `COc1ccc(N(C(=O)CCl)C(C(=O)NCCc2ccccc2)c2cccs2)cc1Cl` (configuration not stated), the z-score was determined as 0.623. `O=C(CCl)N(CCCNC(=O)C(F)(F)F)c1ccc([N+](=O)[O-])cc1` had a z-score of 0.0387. `O=C(COc1ccc(/C=C\[N+](=O)[O-])cc1)N1CCOCC1`: the z-score stood at 0.19. On to `COc1ccccc1/C=C/C(=O)/C=C/c1ccccc1O`, for which the z-score came out at 0.708. `CC1(C)COC(/C=C/c2cccc([N+](=O)[O-])c2)=N1` showed a z-score of 0.604.

For the compound `Cc1ccc(N(CCC#N)C(=O)CCl)cc1C`, the z-score stood at 0.0514.

`N#Cc1ccc(/C=C/C(=O)c2cccnc2)cc1` had a z-score of 0.225. Next, `O=C(NCCCN1CCCCCC1)c1ccc2c(Cl)c3c(nc2c1)CCCC3`: 0.698. In turn, `CS(=O)(=O)c1ncc(Cl)c(C(=O)Nc2ccc3ccccc3c2)n1` showed a z-score of 0.47.

As to `Cc1ccc(N2C(=O)c3cccc4c(N)ccc(c34)C2=O)c2cccnc12`, the z-score was -0.835. As for `Cn1cnc([N+](=O)[O-])c1S(=O)(=O)c1ccc(Cl)cc1`, the z-score is -0.365. The compound `O=[N+]([O-])c1ccc(S(=O)(=O)CC(CN2CCCCC2)N2CCCCC2)cc1` (configuration not stated) returned a z-score of 0.0288.

Take `Cn1c(=O)c([N+](=O)[O-])c(Cl)c2ccccc21`: the z-score is 0.19. On to `C=CCSc1nnc(C)c(/C=C/Nc2ccc(Cl)cc2)n1`, for which the z-score was 0.495.

Consider `O=C1C=C(NC2=CC3OC(c4ccccc4)OCC3OC2=O)CCC1` (configuration not stated), for which the z-score came to 0.38. Next, `CCN(CC)c1ccc2cc(-c3nc4ccccc4[nH]3)c(=O)oc2c1`: 0.898; `O=Cc1[nH]c2ccccc2c1N(C(=O)CCl)c1ccccc1`: 0.764; `O=[N+]([O-])c1cc([N+](=O)[O-])c2cccnc2c1Oc1ccccc1O`: -1.6. Compound `O=S(=O)(CCSc1ccccn1)c1nc2ccccc2s1` yielded a z-score of 0.239. Consider `Cc1cc(-c2nnc(-c3ccccc3)c(-c3ccccc3)n2)c(C)o1`, for which the z-score is -1.47. In turn, `Cc1cc(NC(=O)CCCS(=O)(=O)c2nc(-c3cccs3)cc(C(F)(F)F)n2)no1` came in with a z-score of -1.11. Consider `COC(=O)c1cc(=O)n(CCc2ccc(OC)cc2)c(=Nc2ccc(F)c(Cl)c2)s1`, for which the z-score was determined as 0.539. For `C/C=C(\CS(=O)(=O)c1ccccc1)S(=O)(=O)c1ccccc1`, the z-score was -0.0669. The compound `OC(CNCCc1ccc(Cl)cc1)COc1ccc2ccccc2c1` (configuration not stated) came in with a z-score of -5.08. On to `COC(=O)NC(=C(Cl)Cl)S(=O)(=O)c1ccccc1`, for which the z-score is -0.296. Compound `CCOc1ccc(CN(C)C(=O)CCl)cc1` showed a z-score of 0.432. `COCCNC(=O)/C(C#N)=C/C=C/c1ccccc1[N+](=O)[O-]` yielded a z-score of 0.122. In turn, `CCOc1cc(/C=C\[N+](=O)[O-])ccc1OCC(=O)Nc1ccccc1C` yielded a z-score of -0.115. Next, `C=C1C(=O)C=C2CN(C(=O)c3ccccc3)[C@@](Cc3ccc(F)cc3)(C(=O)OC)[C@@H]12`: 0.189. Regarding `O=C1COc2ccc(C(=O)CCl)cc2N1`, the z-score was -0.0624.

`O=C(OCCN1C(=O)c2cccc3c(N4CCOCC4)ccc(c23)C1=O)c1cccc(Cl)c1`: the z-score turned out to be 0.443.
